Test results as given in the supplement of paper PMC10849652.
The other results are listed elsewhere or left out.

Chains of the proteins cited; added tags and fusions are not shown. Lines headed by an entry give the natural chain unless they say otherwise; changes in a name come on top.
UniProt P17026: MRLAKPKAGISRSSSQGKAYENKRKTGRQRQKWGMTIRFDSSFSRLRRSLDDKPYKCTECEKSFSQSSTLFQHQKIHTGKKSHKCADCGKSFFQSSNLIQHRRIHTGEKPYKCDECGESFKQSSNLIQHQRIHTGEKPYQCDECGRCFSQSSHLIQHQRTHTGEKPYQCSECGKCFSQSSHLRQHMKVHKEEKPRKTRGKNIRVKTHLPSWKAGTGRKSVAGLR
UniProt Q96NB3: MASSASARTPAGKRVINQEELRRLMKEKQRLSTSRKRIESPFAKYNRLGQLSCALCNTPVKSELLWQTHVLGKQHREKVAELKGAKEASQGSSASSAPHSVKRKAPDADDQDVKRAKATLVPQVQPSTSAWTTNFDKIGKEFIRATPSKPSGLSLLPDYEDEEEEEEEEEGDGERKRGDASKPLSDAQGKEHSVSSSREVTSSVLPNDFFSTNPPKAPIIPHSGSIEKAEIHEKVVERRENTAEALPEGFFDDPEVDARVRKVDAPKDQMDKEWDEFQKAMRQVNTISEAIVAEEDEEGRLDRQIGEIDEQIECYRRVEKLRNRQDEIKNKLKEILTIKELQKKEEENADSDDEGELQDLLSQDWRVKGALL
UniProt Q9NWK9: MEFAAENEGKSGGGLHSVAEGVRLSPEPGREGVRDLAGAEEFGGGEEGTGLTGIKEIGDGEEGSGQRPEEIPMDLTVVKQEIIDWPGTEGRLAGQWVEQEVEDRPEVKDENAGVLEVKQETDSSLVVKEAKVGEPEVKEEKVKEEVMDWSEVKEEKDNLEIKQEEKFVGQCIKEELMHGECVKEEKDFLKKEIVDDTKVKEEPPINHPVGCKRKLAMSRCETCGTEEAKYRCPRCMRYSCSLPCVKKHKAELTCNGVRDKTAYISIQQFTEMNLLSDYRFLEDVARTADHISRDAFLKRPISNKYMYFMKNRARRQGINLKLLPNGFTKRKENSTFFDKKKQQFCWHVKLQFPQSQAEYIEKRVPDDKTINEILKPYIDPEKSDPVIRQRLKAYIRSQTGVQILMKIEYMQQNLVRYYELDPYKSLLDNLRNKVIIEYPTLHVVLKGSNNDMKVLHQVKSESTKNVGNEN
UniProt P17029: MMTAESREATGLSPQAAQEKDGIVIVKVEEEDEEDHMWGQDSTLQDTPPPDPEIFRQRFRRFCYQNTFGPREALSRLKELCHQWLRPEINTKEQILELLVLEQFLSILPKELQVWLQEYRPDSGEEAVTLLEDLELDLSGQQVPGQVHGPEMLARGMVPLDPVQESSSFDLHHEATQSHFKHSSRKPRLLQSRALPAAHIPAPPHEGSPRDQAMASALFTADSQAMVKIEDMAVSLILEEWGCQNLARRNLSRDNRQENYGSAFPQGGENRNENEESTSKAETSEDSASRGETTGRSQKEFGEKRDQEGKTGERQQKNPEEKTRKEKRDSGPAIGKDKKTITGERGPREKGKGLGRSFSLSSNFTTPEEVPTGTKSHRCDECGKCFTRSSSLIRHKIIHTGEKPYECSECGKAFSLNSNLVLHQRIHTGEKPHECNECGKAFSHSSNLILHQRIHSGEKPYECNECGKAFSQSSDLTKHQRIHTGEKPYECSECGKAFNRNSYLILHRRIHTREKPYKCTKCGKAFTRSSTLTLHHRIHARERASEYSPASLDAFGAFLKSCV
UniProt Q96NC0: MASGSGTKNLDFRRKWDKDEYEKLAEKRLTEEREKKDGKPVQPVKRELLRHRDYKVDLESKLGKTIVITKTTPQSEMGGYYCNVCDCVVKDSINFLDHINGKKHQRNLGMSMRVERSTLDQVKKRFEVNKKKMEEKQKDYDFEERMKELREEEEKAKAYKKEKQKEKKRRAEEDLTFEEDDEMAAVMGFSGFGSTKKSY
UniProt Q969S3: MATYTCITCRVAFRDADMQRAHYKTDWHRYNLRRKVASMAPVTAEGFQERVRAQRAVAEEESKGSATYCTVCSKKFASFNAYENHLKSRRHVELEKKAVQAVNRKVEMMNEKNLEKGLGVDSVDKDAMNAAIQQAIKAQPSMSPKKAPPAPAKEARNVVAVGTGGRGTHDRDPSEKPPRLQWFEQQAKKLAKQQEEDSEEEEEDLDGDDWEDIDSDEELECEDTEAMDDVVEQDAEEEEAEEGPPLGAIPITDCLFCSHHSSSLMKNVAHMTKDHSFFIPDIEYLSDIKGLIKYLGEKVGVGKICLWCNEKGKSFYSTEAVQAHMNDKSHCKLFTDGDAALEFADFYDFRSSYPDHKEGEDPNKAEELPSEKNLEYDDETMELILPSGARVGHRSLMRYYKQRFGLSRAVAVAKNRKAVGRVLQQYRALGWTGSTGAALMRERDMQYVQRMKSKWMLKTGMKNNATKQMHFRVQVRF
UniProt O43264: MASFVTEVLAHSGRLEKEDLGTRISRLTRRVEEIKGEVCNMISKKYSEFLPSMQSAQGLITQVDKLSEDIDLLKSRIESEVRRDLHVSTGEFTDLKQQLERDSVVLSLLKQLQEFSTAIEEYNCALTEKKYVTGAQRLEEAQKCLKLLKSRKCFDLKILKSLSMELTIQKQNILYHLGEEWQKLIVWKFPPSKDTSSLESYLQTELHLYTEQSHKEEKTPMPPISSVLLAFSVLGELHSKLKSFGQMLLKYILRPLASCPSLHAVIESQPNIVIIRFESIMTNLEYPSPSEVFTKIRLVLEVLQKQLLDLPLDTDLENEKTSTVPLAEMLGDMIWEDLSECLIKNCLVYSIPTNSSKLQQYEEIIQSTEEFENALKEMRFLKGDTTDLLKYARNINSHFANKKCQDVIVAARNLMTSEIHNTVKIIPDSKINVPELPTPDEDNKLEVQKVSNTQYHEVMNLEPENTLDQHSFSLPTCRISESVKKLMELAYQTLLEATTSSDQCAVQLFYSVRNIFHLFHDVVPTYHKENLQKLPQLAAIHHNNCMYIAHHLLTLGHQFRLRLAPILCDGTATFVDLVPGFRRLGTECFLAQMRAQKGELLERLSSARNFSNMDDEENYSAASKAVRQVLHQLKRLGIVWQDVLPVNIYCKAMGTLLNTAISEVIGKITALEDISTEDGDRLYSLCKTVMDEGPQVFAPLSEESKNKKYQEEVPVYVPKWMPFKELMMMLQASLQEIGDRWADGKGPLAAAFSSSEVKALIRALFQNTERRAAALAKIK
UniProt Q9P2E3: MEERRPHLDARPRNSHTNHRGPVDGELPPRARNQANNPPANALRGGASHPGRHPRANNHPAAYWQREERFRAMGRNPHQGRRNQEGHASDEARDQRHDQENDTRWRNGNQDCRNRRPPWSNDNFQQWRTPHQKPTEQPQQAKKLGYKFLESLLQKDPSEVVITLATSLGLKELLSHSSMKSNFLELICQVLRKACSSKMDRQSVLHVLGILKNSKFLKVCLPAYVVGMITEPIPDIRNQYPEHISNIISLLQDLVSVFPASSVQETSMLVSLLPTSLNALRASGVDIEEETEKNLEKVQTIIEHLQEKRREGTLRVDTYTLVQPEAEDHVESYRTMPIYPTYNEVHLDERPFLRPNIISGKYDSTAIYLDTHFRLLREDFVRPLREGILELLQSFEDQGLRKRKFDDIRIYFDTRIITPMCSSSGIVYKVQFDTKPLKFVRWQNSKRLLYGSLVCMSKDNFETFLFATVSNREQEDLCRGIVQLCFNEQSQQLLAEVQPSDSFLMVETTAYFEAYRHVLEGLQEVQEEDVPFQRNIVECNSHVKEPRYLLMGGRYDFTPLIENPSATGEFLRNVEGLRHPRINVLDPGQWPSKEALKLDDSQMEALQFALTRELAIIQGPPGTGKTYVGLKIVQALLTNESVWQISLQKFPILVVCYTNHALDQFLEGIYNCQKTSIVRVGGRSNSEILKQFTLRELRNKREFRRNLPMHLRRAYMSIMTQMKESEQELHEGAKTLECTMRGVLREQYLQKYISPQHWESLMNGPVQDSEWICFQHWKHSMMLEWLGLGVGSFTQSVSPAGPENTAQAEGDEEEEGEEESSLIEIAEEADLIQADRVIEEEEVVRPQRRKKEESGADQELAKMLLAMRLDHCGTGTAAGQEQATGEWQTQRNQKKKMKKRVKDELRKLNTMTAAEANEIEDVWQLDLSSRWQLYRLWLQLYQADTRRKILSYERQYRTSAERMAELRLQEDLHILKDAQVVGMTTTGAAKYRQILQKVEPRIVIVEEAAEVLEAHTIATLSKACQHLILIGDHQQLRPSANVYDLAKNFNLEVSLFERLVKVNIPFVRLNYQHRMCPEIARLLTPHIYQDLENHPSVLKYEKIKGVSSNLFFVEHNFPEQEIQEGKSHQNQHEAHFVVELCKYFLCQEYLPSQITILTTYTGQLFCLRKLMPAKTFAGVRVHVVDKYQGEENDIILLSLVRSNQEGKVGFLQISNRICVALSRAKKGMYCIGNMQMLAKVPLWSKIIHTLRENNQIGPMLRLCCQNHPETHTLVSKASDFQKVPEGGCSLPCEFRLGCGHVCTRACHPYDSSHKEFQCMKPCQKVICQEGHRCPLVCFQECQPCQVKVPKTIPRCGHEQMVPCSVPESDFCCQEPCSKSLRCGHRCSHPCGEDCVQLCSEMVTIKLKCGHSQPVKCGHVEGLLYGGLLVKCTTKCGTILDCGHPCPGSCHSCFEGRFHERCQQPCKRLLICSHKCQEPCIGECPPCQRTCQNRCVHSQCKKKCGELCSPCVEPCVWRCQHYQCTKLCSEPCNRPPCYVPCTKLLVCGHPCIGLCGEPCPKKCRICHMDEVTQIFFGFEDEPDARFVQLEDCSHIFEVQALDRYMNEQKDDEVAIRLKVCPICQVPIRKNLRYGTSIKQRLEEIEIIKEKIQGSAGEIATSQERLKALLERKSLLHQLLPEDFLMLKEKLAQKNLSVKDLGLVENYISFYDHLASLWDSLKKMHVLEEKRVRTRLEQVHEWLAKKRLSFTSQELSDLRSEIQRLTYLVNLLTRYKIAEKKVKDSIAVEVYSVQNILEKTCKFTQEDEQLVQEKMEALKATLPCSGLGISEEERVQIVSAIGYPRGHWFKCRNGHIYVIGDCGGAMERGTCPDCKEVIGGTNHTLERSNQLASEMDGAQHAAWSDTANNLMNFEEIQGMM
UniProt P52739: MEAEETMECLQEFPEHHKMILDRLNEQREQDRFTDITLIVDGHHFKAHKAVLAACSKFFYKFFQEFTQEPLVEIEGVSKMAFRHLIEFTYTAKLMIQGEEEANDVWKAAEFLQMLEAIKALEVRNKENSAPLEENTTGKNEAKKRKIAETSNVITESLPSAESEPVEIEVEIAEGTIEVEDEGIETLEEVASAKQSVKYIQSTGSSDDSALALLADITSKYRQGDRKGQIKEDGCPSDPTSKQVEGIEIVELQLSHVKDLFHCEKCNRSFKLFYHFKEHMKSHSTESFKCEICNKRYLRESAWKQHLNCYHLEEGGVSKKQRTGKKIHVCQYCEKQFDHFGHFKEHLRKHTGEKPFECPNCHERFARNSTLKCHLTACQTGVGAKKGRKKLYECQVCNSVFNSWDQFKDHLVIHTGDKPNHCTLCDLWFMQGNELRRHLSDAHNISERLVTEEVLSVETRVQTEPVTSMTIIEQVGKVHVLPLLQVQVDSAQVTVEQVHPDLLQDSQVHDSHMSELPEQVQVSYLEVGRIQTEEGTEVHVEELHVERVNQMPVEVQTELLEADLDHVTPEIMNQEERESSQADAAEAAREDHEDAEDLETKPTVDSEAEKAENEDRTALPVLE
UniProt Q8NAF0: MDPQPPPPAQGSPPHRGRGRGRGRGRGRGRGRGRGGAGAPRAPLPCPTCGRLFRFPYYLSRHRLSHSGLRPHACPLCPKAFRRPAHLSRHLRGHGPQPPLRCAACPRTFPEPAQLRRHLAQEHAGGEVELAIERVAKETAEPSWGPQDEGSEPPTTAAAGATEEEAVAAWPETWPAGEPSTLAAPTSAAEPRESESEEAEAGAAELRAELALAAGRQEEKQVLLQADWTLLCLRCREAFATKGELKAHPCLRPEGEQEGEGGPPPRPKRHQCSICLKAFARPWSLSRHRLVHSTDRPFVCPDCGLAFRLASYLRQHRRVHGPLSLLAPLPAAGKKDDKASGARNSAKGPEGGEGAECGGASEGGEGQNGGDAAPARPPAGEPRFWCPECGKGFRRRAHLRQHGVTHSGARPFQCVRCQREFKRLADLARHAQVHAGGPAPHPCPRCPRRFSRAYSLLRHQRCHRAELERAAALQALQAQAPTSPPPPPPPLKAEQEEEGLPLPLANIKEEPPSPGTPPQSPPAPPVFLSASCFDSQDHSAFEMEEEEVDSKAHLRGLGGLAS
UniProt O60232: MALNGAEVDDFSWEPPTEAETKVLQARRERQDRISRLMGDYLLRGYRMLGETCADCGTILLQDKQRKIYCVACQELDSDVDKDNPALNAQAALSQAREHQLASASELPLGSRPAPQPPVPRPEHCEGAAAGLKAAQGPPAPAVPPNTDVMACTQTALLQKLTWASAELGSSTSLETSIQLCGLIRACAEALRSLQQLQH

Key:
Assay in all cases: log2 fold change, soluble protein after heating vs DMSO (PISA); higher = thermal stabilisation; K562 lysate, 10 uM; active = over 0.2 and 3.5 SD of the protein, either way, in both replicates (recomputed)
lapatinib = compound: CS(=O)(=O)CCNCc1ccc(-c2ccc3ncnc(Nc4ccc(OCc5cccc(F)c5)c(Cl)c4)c3c2)o1 [lapatinib]
Method in brief: (§1)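 K562 pellets were dounce-homogenised in PBS pH 7.4 containing 1 mM MgCl2, and the crude extract, at 1 mg/mL protein, was exposed to 10 μM compound for 30 min. Aliquots were heated for 3 min across 48°C-58°C, pooled, brought to 0.5% NP-40 at 4°C and spun at 21,000xg for 90 min, with the supernatant taken as soluble protein. TMTpro 16plex LC-MS/MS with equalised channel sums quantified that protein. Values are log-two fold changes in thermal stability relative to solvent controls, taken from duplicates.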

pictilisib = compound: CS(=O)(=O)N1CCN(Cc2cc3nc(-c4cccc5[nH]ncc45)nc(N4CCOCC4)c3s2)CC1 [pictilisib]
Method in brief: as §1

crizotinib = compound: C[C@@H](Oc1cc(-c2cnn(C3CCNCC3)c2)cnc1N)c1c(Cl)ccc(F)c1Cl [crizotinib]
Method in brief: as §1

[1] = compound: C[C@H](C1=CC=C(C=C1)C(=O)NC2=C3C=CNC3=NC=C2)N
Method in brief: as §1

duvelisib = compound: C[C@H](Nc1ncnc2nc[nH]c12)c1cc2cccc(Cl)c2c(=O)n1-c1ccccc1 [duvelisib]
Method in brief: as §1

gandotinib = compound: Cc1cc(Nc2cc(CN3CCOCC3)c3nc(C)c(Cc4ccc(Cl)cc4F)n3n2)n[nH]1 [gandotinib]
Method in brief: as §1

tozasertib = compound: Cc1cc(Nc2cc(N3CCN(C)CC3)nc(Sc3ccc(NC(=O)C4CC4)cc3)n2)n[nH]1 [tozasertib]
Method in brief: as §1

doramapimod = compound: Cc1ccc(-n2nc(C(C)(C)C)cc2NC(=O)Nc2ccc(OCCN3CCOCC3)c3ccccc23)cc1 [doramapimod]
Method in brief: as §1

bafetinib = compound: Cc1ccc(NC(=O)c2ccc(CN3CC[C@H](N(C)C)C3)c(C(F)(F)F)c2)cc1Nc1nccc(-c2cncnc2)n1 [bafetinib]
Method in brief: as §1

[2] = compound: Cc1cccc(CC(=O)N2CCc3c2ccc(-c2cn(C)c4ncnc(N)c24)c3F)n1
Method in brief: as §1

nilotinib = compound: Cc1cn(-c2cc(NC(=O)c3ccc(C)c(Nc4nccc(-c5cccnc5)n4)c3)cc(C(F)(F)F)c2)cn1 [nilotinib]
Method in brief: as §1

[3] = compound: Cc1nc(Nc2n[nH]c3c2CN(C(=O)N[C@H](CN(C)C)c2ccccc2)C3(C)C)c2sccc2n1
Method in brief: as §1

dasatinib = compound: Cc1nc(Nc2ncc(C(=O)Nc3c(C)cccc3Cl)s2)cc(N2CCN(CCO)CC2)n1 [dasatinib]
Method in brief: as §1

[4] = compound: Cc1ncc(-c2ccnc(Nc3ccc(S(C)(=O)=O)cc3)n2)n1C(C)C
Method in brief: as §1

[5] = compound: Cn1cc(-c2ccc3c(c2)CCN3C(=O)Cc2cccc(C(F)(F)F)c2)c2c(N)ncnc21
Method in brief: as §1

quisinostat = compound: Cn1cc(CNCC2CCN(c3ncc(C(=O)NO)cn3)CC2)c2ccccc21 [quisinostat]
Method in brief: as §1

tipifarnib = compound: Cn1cncc1[C@@](N)(c1ccc(Cl)cc1)c1ccc2c(c1)c(-c1cccc(Cl)c1)cc(=O)n2C [tipifarnib]
Method in brief: as §1

[6] = compound: NC(=O)Nc1cc(-c2cccc(F)c2)sc1C(=O)N[C@H]1CCCNC1
Method in brief: as §1

[7] = compound: NC(=O)c1cnc(N[C@@H]2CCCC[C@@H]2N)nc1Nc1cccc(-n2nccn2)c1
Method in brief: as §1

[8] = compound: NC1(c2ccc(-c3nc4ccn5c(=O)[nH]nc5c4cc3-c3ccccc3)cc2)CCC1
Method in brief: as §1

Measured: log2 fold change

ZNF22 (UniProt P17026)
inactive: lapatinib -0.025 | pictilisib -0.016 | crizotinib 0.003 | [1] 0.087 | duvelisib -0.109 | gandotinib -0.001 | tozasertib 0.075 | doramapimod -0.043 | bafetinib -0.051 | [2] -0.032 | nilotinib 0.068 | [3] 0.014 | dasatinib -0.063 | [4] 0.067 | [5] 0.085 | quisinostat 0.048 | tipifarnib 0.069 | [6] -0.015 | [7] -0.011 | [8] 0.006

ZNF830 (UniProt Q96NB3)
inactive: lapatinib 0.001 | pictilisib 0.009 | crizotinib 0.013 | [1] -0.042 | duvelisib 0.001 | gandotinib 0.051 | tozasertib -0.041 | doramapimod 0.017 | bafetinib -0.021 | [2] -0.086 | nilotinib -0.024 | [3] -0.055 | dasatinib 0.016 | [4] 0.058 | [5] 0.037 | quisinostat -0.014 | tipifarnib 0.074 | [6] -0.053 | [7] 0.004 | [8] -0.025

ZNF316 (UniProt A6NFI3)
inactive: lapatinib -0.167 | pictilisib -0.052 | crizotinib -0.074 | [1] -0.215 | duvelisib 0.082 | gandotinib 0.073 | tozasertib -0.037 | doramapimod -0.016 | bafetinib 0.098 | [2] 0.184 | nilotinib -0.115 | [3] 0.065 | dasatinib -0.123 | [4] -0.091 | [5] -0.035 | quisinostat -0.012 | tipifarnib -0.039 | [6] 0.029 | [7] 0.052 | [8] 0.031

ZNF768 (UniProt Q9H5H4)
inactive: lapatinib -0.029 | pictilisib 0.016 | crizotinib 0.002 | [1] -0.002 | duvelisib 0.022 | gandotinib 0.067 | tozasertib -0.032 | doramapimod 0.143 | bafetinib -0.065 | [2] -0.024 | nilotinib -0.028 | [3] 0.026 | dasatinib 0.021 | [4] -0.141 | [5] 0.008 | quisinostat 0.003 | tipifarnib 0.064 | [6] 0.037 | [7] 0.005 | [8] -0.019

ZNHIT6 (UniProt Q9NWK9)
inactive: lapatinib 0.042 | pictilisib 0.006 | crizotinib -0.006 | [1] 0.061 | duvelisib -0.002 | gandotinib 0.008 | tozasertib -0.029 | doramapimod -0.024 | bafetinib -0.026 | [2] -0.004 | nilotinib -0.023 | [3] 0 | dasatinib -0.037 | [4] -0.005 | [5] 0.004 | quisinostat -0.04 | tipifarnib 0.014 | [6] 0.087 | [7] 0.028 | [8] -0.022

ZKSCAN1 (UniProt P17029)
inactive: lapatinib -0.016 | pictilisib -0.009 | crizotinib -0.014 | [1] 0.035 | duvelisib -0.074 | gandotinib -0.022 | tozasertib 0.051 | doramapimod 0.012 | bafetinib -0.054 | [2] -0.004 | nilotinib 0.139 | [3] -0.118 | dasatinib -0.028 | [4] 0.055 | [5] 0.031 | quisinostat -0.023 | tipifarnib 0.002 | [6] 0.045 | [7] 0.023 | [8] -0.032

ZMAT2 (UniProt Q96NC0)
inactive: lapatinib 0.006 | pictilisib 0.003 | crizotinib -0.005 | [1] 0.02 | duvelisib -0.034 | gandotinib -0.035 | tozasertib -0.028 | doramapimod 0.042 | bafetinib 0.053 | [2] -0.043 | nilotinib -0.014 | [3] 0.037 | dasatinib 0.022 | [4] 0.027 | [5] 0.033 | quisinostat -0.066 | tipifarnib -0.013 | [6] -0.044 | [7] 0.002 | [8] -0.03

ZNF622 (UniProt Q969S3)
inactive: lapatinib -0.005 | pictilisib 0.025 | crizotinib -0.011 | [1] -0.048 | duvelisib 0.005 | gandotinib -0.013 | tozasertib 0.009 | doramapimod -0.011 | bafetinib -0.078 | [2] 0.038 | nilotinib 0.011 | [3] -0.032 | dasatinib -0.018 | [4] 0.002 | [5] 0.037 | quisinostat 0.062 | tipifarnib 0.019 | [6] 0.006 | [7] 0.031 | [8] -0.003

4 neighbouring records already listed, quoted:
ZNF316 (UniProt A6NFI3)
inactive: lapatinib -0.167 | pictilisib -0.052 | crizotinib -0.074 | [1] -0.215 | duvelisib 0.082 | gandotinib 0.073 | tozasertib -0.037 | doramapimod -0.016 | bafetinib 0.098 | [2] 0.184 | nilotinib -0.115 | [3] 0.065 | dasatinib -0.123 | [4] -0.091 | [5] -0.035 | quisinostat -0.012 | tipifarnib -0.039 | [6] 0.029 | [7] 0.052 | [8] 0.031

ZNF768 (UniProt Q9H5H4)
inactive: lapatinib -0.029 | pictilisib 0.016 | crizotinib 0.002 | [1] -0.002 | duvelisib 0.022 | gandotinib 0.067 | tozasertib -0.032 | doramapimod 0.143 | bafetinib -0.065 | [2] -0.024 | nilotinib -0.028 | [3] 0.026 | dasatinib 0.021 | [4] -0.141 | [5] 0.008 | quisinostat 0.003 | tipifarnib 0.064 | [6] 0.037 | [7] 0.005 | [8] -0.019

ZNHIT6 (UniProt Q9NWK9)
inactive: lapatinib 0.042 | pictilisib 0.006 | crizotinib -0.006 | [1] 0.061 | duvelisib -0.002 | gandotinib 0.008 | tozasertib -0.029 | doramapimod -0.024 | bafetinib -0.026 | [2] -0.004 | nilotinib -0.023 | [3] 0 | dasatinib -0.037 | [4] -0.005 | [5] 0.004 | quisinostat -0.04 | tipifarnib 0.014 | [6] 0.087 | [7] 0.028 | [8] -0.022

ZKSCAN1 (UniProt P17029)
inactive: lapatinib -0.016 | pictilisib -0.009 | crizotinib -0.014 | [1] 0.035 | duvelisib -0.074 | gandotinib -0.022 | tozasertib 0.051 | doramapimod 0.012 | bafetinib -0.054 | [2] -0.004 | nilotinib 0.139 | [3] -0.118 | dasatinib -0.028 | [4] 0.055 | [5] 0.031 | quisinostat -0.023 | tipifarnib 0.002 | [6] 0.045 | [7] 0.023 | [8] -0.032

Carrying on.

ZW10 (UniProt O43264)
inactive: lapatinib -0.048 | pictilisib 0.003 | crizotinib -0.089 | [1] -0.034 | duvelisib 0.011 | gandotinib -0.067 | tozasertib 0.008 | doramapimod -0.013 | bafetinib -0.038 | [2] 0.03 | nilotinib -0.034 | [3] -0.004 | dasatinib -0.049 | [4] 0.016 | [5] -0.001 | quisinostat -0.001 | tipifarnib 0.005 | [6] 0.012 | [7] 0.02 | [8] -0.017

ZNFX1 (UniProt Q9P2E3)
inactive: lapatinib 0.088 | pictilisib 0.039 | crizotinib -0.052 | [1] 0.013 | duvelisib -0.048 | gandotinib -0.104 | tozasertib 0.067 | doramapimod -0.047 | bafetinib 0.053 | [2] 0.224 | nilotinib 0.05 | [3] 0.022 | dasatinib 0.017 | [4] 0.004 | [5] 0.06 | quisinostat -0.097 | tipifarnib -0.007 | [6] 0.098 | [7] 0.006 | [8] 0.098

ZNF131 (UniProt P52739)
inactive: lapatinib 0.122 | pictilisib 0.042 | crizotinib 0 | [1] -0.018 | duvelisib 0.015 | gandotinib -0.045 | tozasertib -0.033 | doramapimod -0.046 | bafetinib 0.014 | [2] 0.045 | nilotinib -0.028 | [3] 0.129 | dasatinib -0.022 | [4] -0.034 | [5] -0.023 | quisinostat 0 | tipifarnib 0.052 | [6] 0.025 | [7] 0.109 | [8] -0.046

ZNF579 (UniProt Q8NAF0)
inactive: lapatinib -0.027 | pictilisib -0.051 | crizotinib -0.036 | [1] 0 | duvelisib 0.169 | gandotinib 0.041 | tozasertib -0.006 | doramapimod 0.043 | bafetinib -0.084 | [2] 0.054 | nilotinib 0.042 | [3] 0.054 | dasatinib -0.075 | [4] -0.03 | [5] -0.058 | quisinostat 0.011 | tipifarnib 0.097 | [6] -0.014 | [7] -0.089 | [8] -0.003

ZYG11B (UniProt Q9C0D3)
inactive: lapatinib 0.026 | pictilisib -0.021 | crizotinib -0.087 | [1] -0.039 | duvelisib 0.015 | gandotinib 0.015 | tozasertib -0.009 | doramapimod -0.025 | bafetinib -0.021 | [2] 0.058 | nilotinib 0.009 | [3] -0.013 | dasatinib 0.06 | [4] -0.009 | [5] -0.016 | quisinostat -0.153 | tipifarnib 0.004 | [6] 0.059 | [7] -0.013 | [8] -0.032

ZNF217 (UniProt O75362)
inactive: lapatinib -0.02 | pictilisib 0.059 | crizotinib -0.025 | [1] -0.045 | duvelisib -0.011 | gandotinib -0.009 | tozasertib 0.044 | doramapimod 0.004 | bafetinib 0.037 | [2] 0.052 | nilotinib 0.06 | [3] 0.026 | dasatinib 0.001 | [4] 0.054 | [5] -0.057 | quisinostat -0.179 | tipifarnib -0.086 | [6] 0.014 | [7] 0.021 | [8] -0.075

ZNF451 (UniProt Q9Y4E5)
inactive: lapatinib -0.044 | pictilisib -0.054 | crizotinib -0.042 | [1] -0.053 | duvelisib 0.007 | gandotinib -0.069 | tozasertib -0.045 | doramapimod 0.052 | bafetinib -0.074 | [2] 0.003 | nilotinib 0.016 | [3] 0.013 | dasatinib -0.028 | [4] -0.033 | [5] 0.02 | quisinostat -0.044 | tipifarnib -0.049 | [6] 0.022 | [7] 0.044 | [8] -0.038

ZNRD2 (UniProt O60232)
inactive: lapatinib 0.084 | pictilisib -0.055 | crizotinib 0.021 | [1] -0.025 | duvelisib 0.081 | gandotinib -0.028 | tozasertib 0.059 | doramapimod 0.04 | bafetinib -0.051 | [2] 0.009 | nilotinib 0.052 | [3] -0.016 | dasatinib 0.01 | [4] 0.044 | [5] -0.011 | quisinostat 0.028 | tipifarnib -0.025 | [6] -0.069 | [7] -0.037 | [8] -0.006
